At least one structure is not confirmed: it was looked up by name or label, or the drawing left a doubt.
Assays:
[1] = tested on: phosphorylation of EGFR and downstream signal transductions in T790M/del19 Ba/F3 cells; experiment: Western blotting of EGFR phosphorylation and downstream signal; type: cell-based, mouse; settings: 10, 100, 1000 nM; FIG. 2E
[2] = tested on: human lung cancer cell line PC9 (EGFR exon 19 deletion mutant); type: cell-based; settings: 0.3 nM to 10000 nM, 72 hours; FIG. 9A
[3] = tested on: Ba/F3 cells expressing the T790M/del19 mutant; experiment: SCID mice transplanted with EGFR mutant expressing Ba/F3; settings: 50 mg/kg osimertinib, 75 mg/kg brigatinib, oral once daily; FIG. 12B
A549 (mutation at K-ras) = experiment: Cell growth of wild type EGFR expressing cells; type: cell-based, human; settings: FIG. 11
[4] = tested on: A431 wherein EGFR is amplified; experiment: Cell growth of wild type EGFR expressing cells; type: cell-based, human; settings: FIG. 11
[5] = tested on: phosphorylation of EGFR and downstream signal transductions in L858R mutant expressing Ba/F3 cells; experiment: Western blotting of EGFR phosphorylation and downstream signal; type: cell-based, mouse; settings: FIG. 4A
H460 (mutation at K-ras) = experiment: Cell growth of wild type EGFR expressing cells; type: cell-based, human; settings: FIG. 11
[6] = tested on: EGFR signal transductions in EGFR mutants expressing Ba/F3 cells; experiment: Western blotting of EGFR signal transductions in EGFR mutants expressing Ba/F3 cells (summary statements); type: cell-based, mouse; settings: FIG. 8A-D; L858R-based lines, not shown
[7] = tested on: phosphorylation of EGFR and downstream signal transductions in T790M/L858R mutant expressing Ba/F3 cells; experiment: Western blotting of EGFR phosphorylation and downstream signal; type: cell-based, mouse; settings: FIG. 4B
[8] = tested on: EGFR T790M/exon19 deletion mutant expressing PC9 cells; experiment: Balb-c nu/nu mice transplanted with EGFR mutant expressing PC9; type: in vivo, mouse; settings: 75 mg/kg brigatinib
[9] = tested on: phosphorylation of EGFR and downstream signal transductions in triple-mutant expressing PC9 cell line; experiment: Western blotting of EGFR signal, PC9 triple-mutant; type: cell-based, human; settings: FIG. 10C, 10D
[10] = tested on: phosphorylation of EGFR and downstream signal transductions in T790M/exon 19 deletion mutant expressing PC9 cell line; experiment: Western blotting of EGFR signal, PC9 T790M; type: cell-based, human; settings: FIG. 10B, 10D
[11] = tested on: T790M/exon 19 deletion mutant expressing PC9 cell line; type: cell-based, human; settings: 0.3 nM to 10000 nM, 72 hours; FIG. 9B
[12] = tested on: phosphorylation of EGFR and downstream signal transductions in parental line PC9; experiment: Western blotting of EGFR signal, PC9; type: cell-based, human; settings: FIG. 10A, 10D

COc1cc(N2CCC(N3CCN(C)CC3)CC2)ccc1Nc1ncc(Cl)c(Nc2ccccc2P(C)(C)=O)n1 [brigatinib]
suppression of phosphorylation of EGFR and downstream signal (in words) [1]: suppressed the phosphorylation of EGFR and the downstream signal | cell growth suppression effect (in words) [2]: extremely weak cell growth suppression effect | tumor growth suppression effect (tumor volume, in words) [3]: growth suppression effect on T790M/del19 was also confirmed | cell growth suppression (in words) (A549 (mutation at K-ras)): did not demonstrate the cell growth suppression effect | cell growth suppression (in words) [4]: did not demonstrate the cell growth suppression effect | suppression of phosphorylation of EGFR and downstream signal (in words) [5]: phosphorylation suppression effect to some extent | cell growth suppression (in words) (H460 (mutation at K-ras)): did not demonstrate the cell growth suppression effect | inhibitory activity against the EGFR signal transductions (in words) [6]: demonstrated the inhibitory activity against the EGFR signal transductions | suppression of phosphorylation of EGFR and downstream signal (in words) [7]: phosphorylation suppression effect to some extent | effect on the tumor growth (tumor volume, in words) ([8]; 50 mg/kg osimertinib, oral once daily, FIG. 13A): apparent tumor growth suppression effect | phosphorylation of EGFR and downstream signal in transplanted tumor (in words) ([8]; cetuximab 1 mg/mouse 3 times weekly, tumors removed after 10 days, FIG. 13C): suppressed phosphorylation of EGFR and the downstream signal transductions | suppression of phosphorylation of EGFR and downstream signal (in words) [9]: demonstrated the suppression effects on the phosphorylation of EGFR | suppression of phosphorylation of EGFR and downstream signal (in words) [10]: demonstrated the effects of suppressing the phosphorylation | cell growth suppression effect (in words) [11]: weak cell growth suppression effect | suppression of phosphorylation of EGFR and downstream signal (in words) [12]: the effect was weaker compared to afatinib
